Test [1] concerns the target histone H3K4 demethylase JARID1A (human (endogenous in K562)) (UniProt P29375). Kind of test: co-IP; whole cell extracts (total cell lysates) of K562 RepID WT and KO cells, proliferating or PMA-treated for 48 hours; immunoprecipitation with anti-CUL4A or anti-JARID1A (3 ug per sample, 14 h at 4°C), Sepharose beads 2 h, washed three times with PBS; immunoblotting. Background: In western blotting, separated proteins are transferred to a membrane and probed.

Chains of the proteins cited; added tags and fusions are not shown.
UniProt P29375: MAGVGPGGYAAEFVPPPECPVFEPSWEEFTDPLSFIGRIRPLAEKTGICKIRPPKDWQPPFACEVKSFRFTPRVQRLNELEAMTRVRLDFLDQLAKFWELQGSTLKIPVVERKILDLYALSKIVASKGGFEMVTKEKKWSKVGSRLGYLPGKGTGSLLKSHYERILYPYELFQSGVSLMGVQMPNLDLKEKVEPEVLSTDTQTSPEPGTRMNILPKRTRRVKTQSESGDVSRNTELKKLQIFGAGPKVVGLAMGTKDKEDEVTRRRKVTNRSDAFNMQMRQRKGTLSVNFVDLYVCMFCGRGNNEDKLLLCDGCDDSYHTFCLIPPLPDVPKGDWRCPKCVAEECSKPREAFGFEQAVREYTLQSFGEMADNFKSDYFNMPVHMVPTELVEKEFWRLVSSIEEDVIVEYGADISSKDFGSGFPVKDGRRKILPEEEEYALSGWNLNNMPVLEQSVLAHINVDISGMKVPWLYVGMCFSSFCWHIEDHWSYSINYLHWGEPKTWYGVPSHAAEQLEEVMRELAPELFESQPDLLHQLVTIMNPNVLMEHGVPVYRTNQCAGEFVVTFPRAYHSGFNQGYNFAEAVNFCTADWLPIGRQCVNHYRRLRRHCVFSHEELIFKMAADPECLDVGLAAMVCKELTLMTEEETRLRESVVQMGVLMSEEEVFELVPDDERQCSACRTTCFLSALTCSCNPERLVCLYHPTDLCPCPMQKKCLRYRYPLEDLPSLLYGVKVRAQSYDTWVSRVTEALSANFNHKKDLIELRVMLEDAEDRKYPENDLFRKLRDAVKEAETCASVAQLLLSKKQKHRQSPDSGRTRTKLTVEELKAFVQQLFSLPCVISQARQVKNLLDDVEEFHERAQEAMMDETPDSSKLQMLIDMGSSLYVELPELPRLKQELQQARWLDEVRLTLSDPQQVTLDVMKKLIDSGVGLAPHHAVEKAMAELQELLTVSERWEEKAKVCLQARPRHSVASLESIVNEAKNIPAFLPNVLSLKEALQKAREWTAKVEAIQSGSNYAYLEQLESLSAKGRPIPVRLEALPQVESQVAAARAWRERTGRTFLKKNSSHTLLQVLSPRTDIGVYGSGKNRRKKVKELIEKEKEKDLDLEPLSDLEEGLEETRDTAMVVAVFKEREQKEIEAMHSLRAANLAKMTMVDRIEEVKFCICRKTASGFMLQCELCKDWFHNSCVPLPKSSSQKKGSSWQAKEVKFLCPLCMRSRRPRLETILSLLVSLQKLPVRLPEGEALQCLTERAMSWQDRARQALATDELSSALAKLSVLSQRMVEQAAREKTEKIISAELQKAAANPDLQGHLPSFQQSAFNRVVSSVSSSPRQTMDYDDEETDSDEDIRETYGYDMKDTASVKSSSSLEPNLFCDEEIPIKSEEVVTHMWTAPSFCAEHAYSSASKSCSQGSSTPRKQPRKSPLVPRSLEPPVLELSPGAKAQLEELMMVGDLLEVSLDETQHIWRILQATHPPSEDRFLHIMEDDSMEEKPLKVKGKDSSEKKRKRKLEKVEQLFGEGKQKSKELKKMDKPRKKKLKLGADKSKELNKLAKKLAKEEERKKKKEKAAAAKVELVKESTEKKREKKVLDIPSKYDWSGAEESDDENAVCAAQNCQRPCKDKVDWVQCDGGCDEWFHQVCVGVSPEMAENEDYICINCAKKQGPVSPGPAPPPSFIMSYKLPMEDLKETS

Test [2] deals with CUL4A (human (endogenous in K562)) (UniProt Q13619). The test is described as above.

These are yes or no findings as the source states them, for the method shown. In cells and extracts the contact can be indirect. Some binding calls cover weakened binding; strength is not graded here.

Take CUL4A (from UniProt Q13619 1-759): the binding result in test [1] is listed as “binds”.
As to “Replication origin binding protein (RepID) (from UniProt Q8WWQ0 1-1821)”, the binding result in test [2] is listed as “binds”.

The record behind these values is article PMC10350187.
